No constants are given. Whether binding was seen depends on the method and setting. Binding seen in cells or lysates may run through a third protein. Binding calls can cover weak binding; strength is not graded here. Sequences can lack the tags named with a protein.
Target: myc-DDK tagged rat TMEM16F (rTMEM16F) (rat)
Test: co-IP; lysate of 16F-null cells co-transfected with myc tagged rP2X7 and myc-DDK tagged rTMEM16F at a cDNA ratio of 1:0.05 (5 ug and 0.25 ug); lysis in 20 mM HEPES, 100 mM NaCl, 1% Triton-X, 5 mM EDTA at 4 °C; precipitated with anti-FLAG antibody and Protein G Sepharose; washes with 500 mM NaCl; Western blot with anti-c-myc antibody

binding: binds
B1: myc tagged rat P2X7 receptor (rP2X7) (receptor, UniProt Q64663 1-595)
chain: MPACCSWNDVFQYETNKVTRIQSVNYGTIKWILHMTVFSYVSFALMSDKLYQRKEPLISSVHTKVKGVAEVTENVTEGGVTKLVHGIFDTADYTLPLQGNSFFVMTNYLKSEGQEQKLCPEYPSRGKQCHSDQGCIKGWMDPQSKGIQTGRCIPYDQKRKTCEIFAWCPAEEGKEAPRPALLRSAENFTVLIKNNIDFPGHNYTTRNILPGMNISCTFHKTWNPQCPIFRLGDIFQEIGENFTEVAVQGGIMGIEIYWDCNLDSWSHRCQPKYSFRRLDDKYTNESLFPGYNFRYAKYYKENGMEKRTLIKAFGVRFDILVFGTGGKFDIIQLVVYIGSTLSYFGLATVCIDLIINTYASTCCRSRVYPSCKCCEPCAVNEYYYRKKCEPIVEPKPTLKYVSFVDEPHIWMVDQQLLGKSLQDVKGQEVPRPQTDFLELSRLSLSLHHSPPIPGQPEEMQLLQIEAVPRSRDSPDWCQCGNCLPSQLPENRRALEELCCRRKPGQCITTSELFSKIVLSREALQLLLLYQEPLLALEGEAINSKLRHCAYRSYATWRFVSQDMADFAILPSCCRWKIRKEFPKTQGQYSGFKYPY
